Results reported in the supplement of paper PMC10849652.
The list shows a part of the results.

By UniProt entry, the sequences of proteins in these tests, tags left out. Where a name states a change or a piece, a line headed by the entry shows the natural chain unless it says otherwise.
UniProt Q9UH99: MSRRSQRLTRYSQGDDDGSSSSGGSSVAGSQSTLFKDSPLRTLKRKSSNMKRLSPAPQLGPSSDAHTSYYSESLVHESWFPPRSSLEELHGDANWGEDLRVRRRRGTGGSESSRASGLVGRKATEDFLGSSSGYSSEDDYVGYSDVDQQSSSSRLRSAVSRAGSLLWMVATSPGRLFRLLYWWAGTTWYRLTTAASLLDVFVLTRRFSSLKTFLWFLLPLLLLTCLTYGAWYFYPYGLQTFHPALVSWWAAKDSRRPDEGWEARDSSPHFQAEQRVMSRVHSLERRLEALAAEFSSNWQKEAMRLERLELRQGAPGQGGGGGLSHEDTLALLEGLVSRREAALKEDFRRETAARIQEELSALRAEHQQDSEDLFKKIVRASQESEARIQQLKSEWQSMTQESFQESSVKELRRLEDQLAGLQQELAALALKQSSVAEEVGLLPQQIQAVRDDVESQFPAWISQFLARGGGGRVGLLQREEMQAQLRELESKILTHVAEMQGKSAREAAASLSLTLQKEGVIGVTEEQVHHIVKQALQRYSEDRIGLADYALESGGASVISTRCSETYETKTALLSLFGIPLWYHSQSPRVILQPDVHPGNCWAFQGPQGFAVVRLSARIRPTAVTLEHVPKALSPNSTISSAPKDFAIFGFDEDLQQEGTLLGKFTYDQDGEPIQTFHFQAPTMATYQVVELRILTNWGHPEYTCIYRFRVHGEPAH
UniProt Q8NBK3: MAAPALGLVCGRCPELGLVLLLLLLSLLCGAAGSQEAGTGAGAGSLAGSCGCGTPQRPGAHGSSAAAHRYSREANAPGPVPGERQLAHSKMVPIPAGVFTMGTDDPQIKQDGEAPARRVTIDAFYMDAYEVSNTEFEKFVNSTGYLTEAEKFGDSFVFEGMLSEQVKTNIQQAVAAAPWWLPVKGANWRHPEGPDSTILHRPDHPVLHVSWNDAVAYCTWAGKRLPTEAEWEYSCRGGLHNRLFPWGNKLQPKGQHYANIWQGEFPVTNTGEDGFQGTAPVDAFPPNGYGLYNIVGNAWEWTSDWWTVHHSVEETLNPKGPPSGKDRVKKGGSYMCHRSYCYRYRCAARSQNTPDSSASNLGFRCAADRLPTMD
UniProt Q9P2R7: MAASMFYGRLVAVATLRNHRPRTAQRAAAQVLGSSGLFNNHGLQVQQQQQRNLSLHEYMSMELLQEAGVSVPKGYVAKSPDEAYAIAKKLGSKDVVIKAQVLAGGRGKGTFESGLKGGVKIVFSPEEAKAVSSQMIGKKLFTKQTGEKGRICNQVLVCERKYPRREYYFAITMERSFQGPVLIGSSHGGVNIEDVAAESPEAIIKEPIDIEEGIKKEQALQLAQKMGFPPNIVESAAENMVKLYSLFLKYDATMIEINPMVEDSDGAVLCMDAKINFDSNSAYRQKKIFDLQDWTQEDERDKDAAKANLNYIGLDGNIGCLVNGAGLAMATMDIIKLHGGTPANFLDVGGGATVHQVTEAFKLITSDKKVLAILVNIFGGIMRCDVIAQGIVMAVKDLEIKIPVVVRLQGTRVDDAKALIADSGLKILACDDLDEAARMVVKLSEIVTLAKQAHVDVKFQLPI
UniProt Q9UNE7: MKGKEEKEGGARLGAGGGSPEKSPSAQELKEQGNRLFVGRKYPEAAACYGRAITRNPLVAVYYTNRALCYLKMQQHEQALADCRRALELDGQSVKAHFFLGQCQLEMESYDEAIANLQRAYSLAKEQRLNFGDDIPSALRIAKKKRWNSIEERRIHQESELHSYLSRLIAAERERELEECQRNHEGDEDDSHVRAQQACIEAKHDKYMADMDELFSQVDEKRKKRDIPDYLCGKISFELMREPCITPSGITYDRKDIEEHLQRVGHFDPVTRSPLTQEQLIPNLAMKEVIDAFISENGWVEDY
UniProt Q8N300: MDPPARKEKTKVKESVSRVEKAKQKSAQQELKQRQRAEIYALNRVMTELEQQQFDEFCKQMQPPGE
UniProt Q8N5C8: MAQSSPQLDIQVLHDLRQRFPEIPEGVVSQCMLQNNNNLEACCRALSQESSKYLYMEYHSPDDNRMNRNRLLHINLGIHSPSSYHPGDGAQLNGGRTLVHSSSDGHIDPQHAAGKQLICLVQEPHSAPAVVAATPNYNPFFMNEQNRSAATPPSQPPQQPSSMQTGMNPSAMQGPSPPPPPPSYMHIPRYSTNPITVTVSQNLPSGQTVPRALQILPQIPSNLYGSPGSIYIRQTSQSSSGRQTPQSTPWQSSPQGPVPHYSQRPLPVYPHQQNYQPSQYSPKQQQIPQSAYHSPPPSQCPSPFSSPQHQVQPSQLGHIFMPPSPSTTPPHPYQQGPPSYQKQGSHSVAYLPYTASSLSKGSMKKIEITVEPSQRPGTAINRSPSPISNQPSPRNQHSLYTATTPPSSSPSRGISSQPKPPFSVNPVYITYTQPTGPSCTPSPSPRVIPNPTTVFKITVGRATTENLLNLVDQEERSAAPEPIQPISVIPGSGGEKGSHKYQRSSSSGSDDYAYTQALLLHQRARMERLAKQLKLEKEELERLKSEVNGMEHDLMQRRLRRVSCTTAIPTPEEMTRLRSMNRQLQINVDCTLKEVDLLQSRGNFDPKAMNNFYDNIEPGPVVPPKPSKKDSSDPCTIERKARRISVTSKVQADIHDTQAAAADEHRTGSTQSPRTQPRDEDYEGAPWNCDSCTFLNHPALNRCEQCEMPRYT
UniProt Q8IYB8: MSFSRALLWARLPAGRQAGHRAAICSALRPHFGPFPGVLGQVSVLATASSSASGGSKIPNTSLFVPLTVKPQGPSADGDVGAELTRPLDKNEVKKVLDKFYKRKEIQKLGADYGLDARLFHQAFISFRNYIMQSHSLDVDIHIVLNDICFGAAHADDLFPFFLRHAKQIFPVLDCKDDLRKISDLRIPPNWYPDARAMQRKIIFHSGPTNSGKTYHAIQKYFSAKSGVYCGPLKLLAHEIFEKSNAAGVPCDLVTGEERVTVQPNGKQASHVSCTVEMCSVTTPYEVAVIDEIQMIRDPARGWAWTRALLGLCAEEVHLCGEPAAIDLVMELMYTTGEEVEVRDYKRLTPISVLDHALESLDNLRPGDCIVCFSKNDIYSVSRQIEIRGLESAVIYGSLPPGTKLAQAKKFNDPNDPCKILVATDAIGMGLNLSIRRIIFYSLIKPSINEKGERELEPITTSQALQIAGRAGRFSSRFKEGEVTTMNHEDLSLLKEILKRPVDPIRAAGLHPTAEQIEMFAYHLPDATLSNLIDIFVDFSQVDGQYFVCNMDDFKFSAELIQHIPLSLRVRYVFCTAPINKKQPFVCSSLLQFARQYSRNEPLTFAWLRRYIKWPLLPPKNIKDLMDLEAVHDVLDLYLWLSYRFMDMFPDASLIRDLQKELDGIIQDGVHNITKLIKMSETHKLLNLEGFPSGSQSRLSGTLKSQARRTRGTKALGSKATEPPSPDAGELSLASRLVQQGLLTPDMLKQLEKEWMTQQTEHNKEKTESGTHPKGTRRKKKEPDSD
UniProt Q15543, whole entry, looked up: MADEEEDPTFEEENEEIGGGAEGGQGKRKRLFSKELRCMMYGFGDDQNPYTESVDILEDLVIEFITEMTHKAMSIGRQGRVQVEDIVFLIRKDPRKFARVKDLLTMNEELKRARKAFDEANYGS
UniProt Q96I99: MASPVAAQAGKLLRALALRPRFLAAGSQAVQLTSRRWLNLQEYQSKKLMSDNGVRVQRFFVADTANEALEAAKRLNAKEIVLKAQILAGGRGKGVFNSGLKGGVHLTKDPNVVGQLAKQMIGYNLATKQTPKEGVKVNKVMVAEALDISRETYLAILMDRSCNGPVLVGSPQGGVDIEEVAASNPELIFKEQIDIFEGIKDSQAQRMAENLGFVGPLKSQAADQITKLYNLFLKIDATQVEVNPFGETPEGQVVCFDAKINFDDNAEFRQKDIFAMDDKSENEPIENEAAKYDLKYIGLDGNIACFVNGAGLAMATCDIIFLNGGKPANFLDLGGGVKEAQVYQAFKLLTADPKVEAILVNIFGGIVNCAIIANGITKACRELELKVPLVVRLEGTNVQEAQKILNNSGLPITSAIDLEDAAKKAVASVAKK
UniProt P51687: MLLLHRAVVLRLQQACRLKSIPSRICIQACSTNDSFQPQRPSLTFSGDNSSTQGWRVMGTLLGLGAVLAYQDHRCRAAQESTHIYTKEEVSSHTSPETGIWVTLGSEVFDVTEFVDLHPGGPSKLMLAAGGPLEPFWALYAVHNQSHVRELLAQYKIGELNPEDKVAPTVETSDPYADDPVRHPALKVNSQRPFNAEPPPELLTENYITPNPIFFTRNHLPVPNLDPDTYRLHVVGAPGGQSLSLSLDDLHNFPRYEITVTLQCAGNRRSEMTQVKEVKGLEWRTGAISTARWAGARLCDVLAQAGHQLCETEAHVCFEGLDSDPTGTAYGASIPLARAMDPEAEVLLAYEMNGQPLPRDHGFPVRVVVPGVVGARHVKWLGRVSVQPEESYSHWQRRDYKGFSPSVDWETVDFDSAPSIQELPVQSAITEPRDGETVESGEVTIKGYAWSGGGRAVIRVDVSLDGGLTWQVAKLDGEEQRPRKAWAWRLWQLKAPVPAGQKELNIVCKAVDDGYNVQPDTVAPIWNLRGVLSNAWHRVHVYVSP
UniProt Q9P2W9: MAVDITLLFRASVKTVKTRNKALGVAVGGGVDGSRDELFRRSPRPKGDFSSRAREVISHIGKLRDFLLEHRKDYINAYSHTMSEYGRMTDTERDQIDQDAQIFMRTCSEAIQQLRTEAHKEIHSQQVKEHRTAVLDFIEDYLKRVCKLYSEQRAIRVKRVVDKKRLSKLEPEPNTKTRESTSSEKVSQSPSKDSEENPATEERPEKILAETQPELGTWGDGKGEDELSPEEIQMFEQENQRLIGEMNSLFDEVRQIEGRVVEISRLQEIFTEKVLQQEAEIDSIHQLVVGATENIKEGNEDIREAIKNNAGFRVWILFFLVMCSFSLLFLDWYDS
UniProt Q9H169: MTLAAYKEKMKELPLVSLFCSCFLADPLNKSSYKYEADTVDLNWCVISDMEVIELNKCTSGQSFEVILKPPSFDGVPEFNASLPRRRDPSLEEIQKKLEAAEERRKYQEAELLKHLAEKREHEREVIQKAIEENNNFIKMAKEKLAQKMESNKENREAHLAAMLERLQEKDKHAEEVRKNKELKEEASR
UniProt Q15542, whole entry, looked up: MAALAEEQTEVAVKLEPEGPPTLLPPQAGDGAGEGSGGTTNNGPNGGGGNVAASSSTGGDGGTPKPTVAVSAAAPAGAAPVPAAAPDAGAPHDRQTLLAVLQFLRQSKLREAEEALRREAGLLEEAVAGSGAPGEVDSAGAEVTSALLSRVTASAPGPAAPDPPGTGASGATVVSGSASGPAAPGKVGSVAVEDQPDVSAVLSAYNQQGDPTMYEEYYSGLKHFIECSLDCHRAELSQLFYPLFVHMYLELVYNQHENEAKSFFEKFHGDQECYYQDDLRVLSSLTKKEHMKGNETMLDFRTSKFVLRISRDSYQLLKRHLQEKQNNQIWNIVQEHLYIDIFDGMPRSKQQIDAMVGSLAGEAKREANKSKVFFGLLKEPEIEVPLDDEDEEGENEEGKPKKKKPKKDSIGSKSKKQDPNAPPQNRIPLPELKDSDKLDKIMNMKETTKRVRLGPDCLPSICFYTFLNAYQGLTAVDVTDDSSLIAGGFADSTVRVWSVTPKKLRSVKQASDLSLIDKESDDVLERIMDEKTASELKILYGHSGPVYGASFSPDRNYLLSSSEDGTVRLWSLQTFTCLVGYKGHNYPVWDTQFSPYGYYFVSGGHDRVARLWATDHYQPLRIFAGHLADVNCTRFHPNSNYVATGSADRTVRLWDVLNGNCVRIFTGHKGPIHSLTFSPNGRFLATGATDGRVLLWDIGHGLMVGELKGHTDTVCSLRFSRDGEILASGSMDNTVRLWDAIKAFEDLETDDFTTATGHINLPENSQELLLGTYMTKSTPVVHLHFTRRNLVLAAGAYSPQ
UniProt P27105: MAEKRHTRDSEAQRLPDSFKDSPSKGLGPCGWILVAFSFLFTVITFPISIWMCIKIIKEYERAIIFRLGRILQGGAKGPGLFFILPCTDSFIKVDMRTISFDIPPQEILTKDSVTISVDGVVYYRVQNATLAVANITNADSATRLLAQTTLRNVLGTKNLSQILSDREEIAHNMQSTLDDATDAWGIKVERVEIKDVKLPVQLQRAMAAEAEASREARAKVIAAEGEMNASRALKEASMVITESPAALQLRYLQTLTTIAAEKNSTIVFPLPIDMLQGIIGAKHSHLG
UniProt Q9UEE5: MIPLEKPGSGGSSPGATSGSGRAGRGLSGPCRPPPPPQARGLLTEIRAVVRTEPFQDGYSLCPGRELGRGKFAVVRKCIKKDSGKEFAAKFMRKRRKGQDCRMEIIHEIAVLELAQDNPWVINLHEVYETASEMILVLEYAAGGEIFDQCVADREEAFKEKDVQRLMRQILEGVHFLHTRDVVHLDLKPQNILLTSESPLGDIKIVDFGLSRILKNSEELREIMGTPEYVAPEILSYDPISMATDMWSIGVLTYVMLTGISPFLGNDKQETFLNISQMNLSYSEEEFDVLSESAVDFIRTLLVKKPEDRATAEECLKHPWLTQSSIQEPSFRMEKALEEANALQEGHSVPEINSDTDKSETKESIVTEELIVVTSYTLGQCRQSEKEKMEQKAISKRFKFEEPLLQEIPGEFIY

Assays:
Experiment in all cases: log2 fold change, soluble protein after heating vs DMSO (PISA); higher = thermal stabilisation; K562 lysate, 10 uM; active = over 0.2 and 3.5 SD of the protein, either way, in both replicates (recomputed)
alvocidib = compound: CN1CC[C@H](c2c(O)cc(O)c3c(=O)cc(-c4ccccc4Cl)oc23)[C@H](O)C1 [alvocidib]
Procedure, shortened: (§1)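 K562 pellets were dounce-homogenised in PBS pH 7.4 with 1 mM MgCl2, and the crude extract at 1 mg/mL protein was treated with 10 μM compound for 30 min. Aliquots were heated for 3 min across 48°C-58°C, pooled, and brought to 0.5% NP-40 at 4°C; soluble protein was the supernatant after 21,000xg for 90 min. Soluble protein was quantified by TMTpro 16plex LC-MS/MS with channel sums equalised, and reported as log2 fold change in thermal stability against DMSO controls, with values from duplicates.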

Tubastatin A = compound: CN1CCc2c(c3ccccc3n2Cc2ccc(C(=O)NO)cc2)C1 [Tubastatin A]
Procedure, shortened: as §1

[1] = compound: CNC(=O)C1=CC=CC=C1NC2=NC(=NC=C2Cl)NC3=C(C=C(C=C3)N4CCOCC4)OC
Procedure, shortened: as §1

defactinib = compound: CNC(=O)c1ccc(Nc2ncc(C(F)(F)F)c(NCc3nccnc3N(C)S(C)(=O)=O)n2)cc1 [defactinib]
Procedure, shortened: as §1

[2] = compound: CNc1nc(-c2ccc3c(N)n[nH]c3c2)cc(N2C[C@@H](C(=O)NC3CCCCC3)CC[C@H]2C)n1
Procedure, shortened: as §1

encorafenib = compound: COC(=O)N[C@@H](C)CNc1nccc(-c2cn(C(C)C)nc2-c2cc(Cl)cc(NS(C)(=O)=O)c2F)n1 [encorafenib]
Procedure, shortened: as §1

[3] = compound: COC(=O)[C@H](CCSC)NC(=O)C1=C(C=C(C=C1)NC[C@H](CS)N)C2=CC=CC=C2
Procedure, shortened: as §1

[4] = compound: COc1cc2nc(-c3cc(F)ccc3O)nc(N[C@@H]3CNC[C@H]3C(C)(C)O)c2cc1OC
Procedure, shortened: as §1

alisertib = compound: COc1cc(Nc2ncc3c(n2)-c2ccc(Cl)cc2C(c2c(F)cccc2OC)=NC3)ccc1C(=O)O [alisertib]
Procedure, shortened: as §1

gefitinib = compound: COc1cc2ncnc(Nc3ccc(F)c(Cl)c3)c2cc1OCCCN1CCOCC1 [gefitinib]
Procedure, shortened: as §1

Measured: log2 fold change

SUN2 isoform 2 (UniProt Q9UH99)
inactive: alvocidib 0.016 | Tubastatin A 0.06 | [1] 0.022 | defactinib 0.023 | [2] 0.008 | encorafenib 0.126 | [3] 0.131 | [4] -0.021

SUMF1 (UniProt Q8NBK3)
inactive: alvocidib -0.049 | Tubastatin A -0.005 | [1] 0.075 | defactinib 0.08 | [2] 0.035 | encorafenib 0.101 | [3] -0.075 | alisertib 0.096 | [4] -0.025 | gefitinib 0.113

SYNGR2 (UniProt O43760)
inactive: alvocidib -0.019 | Tubastatin A 0.046 | [1] 0.003 | defactinib 0.076 | [2] 0.02 | encorafenib 0.075 | [3] -0.034 | alisertib 0.04 | [4] -0.065 | gefitinib -0.032

SYNCRIP isoform 3 (UniProt O60506)
inactive: alvocidib -0.008 | Tubastatin A 0.049 | [1] 0.085 | defactinib -0.052 | encorafenib -0.042 | [3] 0.026 | alisertib 0.062 | [4] 0.005 | gefitinib 0.013

SUCLA2 (UniProt Q9P2R7)
inactive: alvocidib -0.033 | Tubastatin A -0.036 | [1] 0.008 | defactinib -0.028 | [2] -0.014 | encorafenib -0.026 | [3] 0.102 | alisertib 0.004 | [4] -0.018 | gefitinib 0.023

SVIP (UniProt Q8NHG7)
inactive: alvocidib -0.014 | Tubastatin A 0.028 | [1] -0.017 | defactinib 0.025 | [2] 0.098 | encorafenib -0.042 | [3] -0.055 | alisertib 0.05 | [4] -0.039 | gefitinib -0.099

STUB1 (UniProt Q9UNE7)
inactive: alvocidib -0.012 | Tubastatin A -0.193 | [1] 0.003 | defactinib -0.029 | [2] 0.026 | encorafenib -0.025 | [3] 0.135 | alisertib 0.003 | [4] 0.007 | gefitinib -0.003

SURF4 (UniProt O15260)
inactive: alvocidib -0.089 | Tubastatin A -0.002 | [1] 0.004 | defactinib 0.028 | [2] -0.055 | encorafenib 0.07 | [3] -0.03 | alisertib -0.026 | [4] -0.082 | gefitinib 0.039

SVBP (UniProt Q8N300)
inactive: alvocidib -0.066 | Tubastatin A 0.043 | [1] -0.011 | encorafenib 0.142 | [3] -0.131 | alisertib 0.001 | gefitinib -0.074

STXBP2 (UniProt Q15833)
inactive: alvocidib 0.021 | Tubastatin A -0.045 | [1] 0.015 | defactinib 0.011 | [2] 0.004 | encorafenib -0.003 | [3] 0.194 | alisertib 0.011 | [4] 0 | gefitinib 0.002

SYK (UniProt P43405)
inactive: alvocidib -0.142 | Tubastatin A -0.015 | [1] -0.009 | defactinib -0.105 | [2] 0.115 | encorafenib 0.01 | [3] 0.154 | [4] 0.11 | gefitinib -0.004

SYVN1 (UniProt Q86TM6)
inactive: alvocidib -0.011 | Tubastatin A -0.012 | [1] 0.006 | defactinib -0.046 | [2] -0.002 | encorafenib 0.056 | [3] -0.084 | alisertib 0.023 | [4] -0.022 | gefitinib 0

TAB3 (UniProt Q8N5C8)
inactive: alvocidib 0.084 | Tubastatin A -0.028 | [1] 0.047 | [2] -0.011 | encorafenib 0.088 | [3] 0.018 | alisertib -0.027 | [4] -0.238 | gefitinib -0.035

SUPV3L1 (UniProt Q8IYB8)
inactive: alvocidib -0.031 | Tubastatin A 0.033 | [1] 0.015 | defactinib 0.035 | [2] 0.017 | encorafenib 0.01 | [3] -0.061 | alisertib 0.018 | [4] 0.009 | gefitinib 0.013

STIP1 isoform 2 (UniProt P31948)
inactive: alvocidib 0.059 | Tubastatin A 0.012 | [1] 0 | defactinib 0 | [2] 0.007 | encorafenib -0.019 | [3] -0.034 | alisertib -0.005 | [4] 0.005 | gefitinib -0.007

TAF5L (UniProt O75529)
inactive: alvocidib -0.113 | Tubastatin A -0.026 | [1] 0.012 | defactinib 0.282 | [2] -0.025 | encorafenib 0.072 | [3] 0.015 | alisertib -0.083 | gefitinib 0.03

TAF13 (UniProt Q15543)
inactive: alvocidib -0.042 | Tubastatin A -0.01 | [1] 0.035 | defactinib -0.041 | alisertib 0.144 | gefitinib 0.086

STT3B (UniProt Q8TCJ2)
inactive: alvocidib -0.142 | Tubastatin A -0.01 | [1] 0.002 | defactinib 0.019 | [2] 0.004 | encorafenib 0.014 | [3] -0.022 | alisertib -0.013 | [4] -0.032 | gefitinib 0.052

SUCLG2 (UniProt Q96I99)
inactive: alvocidib 0.03 | Tubastatin A -0.001 | [1] -0.014 | defactinib 0.006 | [2] 0.004 | encorafenib -0.016 | [3] 0.101 | alisertib 0.002 | [4] 0 | gefitinib -0.002

SUOX (UniProt P51687)
inactive: alvocidib -0.038 | Tubastatin A 0.038 | [1] -0.06 | defactinib -0.037 | [2] -0.056 | encorafenib 0.075 | [3] 0.011 | alisertib -0.016 | [4] 0.042 | gefitinib 0.041

STX18 (UniProt Q9P2W9)
inactive: alvocidib -0.011 | Tubastatin A 0.096 | [1] -0.297 | defactinib -0.062 | [2] -0.086 | encorafenib 0.001 | [3] 0.019 | alisertib 0.046 | [4] 0.072 | gefitinib 0.06

SYPL1 (UniProt Q16563)
inactive: alvocidib -0.132 | Tubastatin A 0.057 | [1] -0.007 | defactinib -0.014 | [2] 0.029 | encorafenib 0.013 | [3] -0.022 | alisertib 0.016 | [4] 0.012 | gefitinib -0.033

STMN4 isoform 2 (UniProt Q9H169)
inactive: alvocidib -0.002 | Tubastatin A 0.016 | [1] -0.078 | defactinib 0.024 | [2] -0.108 | encorafenib -0.059 | [3] -0.074 | alisertib -0.027 | [4] -0.047 | gefitinib 0.017

TAF5 (UniProt Q15542)
inactive: alvocidib -0.003 | Tubastatin A 0.086 | [1] 0.05 | defactinib 0.023 | [2] 0.002 | [4] 0.051

STYX (UniProt Q8WUJ0)
inactive: alvocidib 0.017 | Tubastatin A -0.005 | [1] 0.08 | [2] 0.004 | encorafenib -0.043 | [3] -0.051 | alisertib -0.048 | [4] 0.051 | gefitinib -0.02

Two consecutive entries out of the list so far:
STX18 (UniProt Q9P2W9)
inactive: alvocidib -0.011 | Tubastatin A 0.096 | [1] -0.297 | defactinib -0.062 | [2] -0.086 | encorafenib 0.001 | [3] 0.019 | alisertib 0.046 | [4] 0.072 | gefitinib 0.06

SYPL1 (UniProt Q16563)
inactive: alvocidib -0.132 | Tubastatin A 0.057 | [1] -0.007 | defactinib -0.014 | [2] 0.029 | encorafenib 0.013 | [3] -0.022 | alisertib 0.016 | [4] 0.012 | gefitinib -0.033

The list goes on.

STOM (UniProt P27105)
inactive: alvocidib 0.003 | Tubastatin A 0.033 | [1] 0.031 | defactinib 0.023 | [2] -0.118 | encorafenib 0.014 | [3] -0.021 | alisertib -0.021 | [4] 0.029 | gefitinib 0.027

SZT2 (UniProt Q5T011)
inactive: alvocidib -0.169 | Tubastatin A 0.012 | [1] -0.002 | [2] 0.109 | encorafenib -0.011 | [3] -0.105 | alisertib -0.193 | [4] -0.031 | gefitinib 0.094

SUPT3H (UniProt O75486)
inactive: alvocidib -0.088 | Tubastatin A -0.059 | [1] 0.064 | encorafenib -0.303 | [3] 0.254 | [4] 0.008

STK4 (UniProt Q13043)
inactive: alvocidib 0.011 | Tubastatin A -0.095 | [1] 0.365 | defactinib 0.231 | [2] 0 | encorafenib -0.073 | [3] -0.055 | alisertib 0.051 | [4] 0.257 | gefitinib 0.002

STK17A (UniProt Q9UEE5)
inactive: alvocidib 0.182 | alisertib -0.291 | gefitinib -0.141

SYNGR2 (UniProt K7EJ35)
inactive: alisertib -0.163 | gefitinib -0.074
